Assay results from paper doi:10.1101/272500.
Like-named read-outs stand apart in the source and are kept apart here. No constants are given. Whether binding was seen depends on the method and setting. Binding seen in cells or lysates may run through a third protein. Some binding calls cover weakened binding; strength is not graded here. For some of these results: Tags and fused reporters may be left off the sequences shown.

Amino acid sequences for entries named in this document (tags omitted).
UniProt Q05195: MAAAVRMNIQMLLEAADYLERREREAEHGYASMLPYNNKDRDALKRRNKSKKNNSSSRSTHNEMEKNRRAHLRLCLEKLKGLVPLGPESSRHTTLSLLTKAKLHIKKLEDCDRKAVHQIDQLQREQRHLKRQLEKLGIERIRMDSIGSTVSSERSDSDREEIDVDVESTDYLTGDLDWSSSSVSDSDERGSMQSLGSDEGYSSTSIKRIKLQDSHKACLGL
UniProt P01106: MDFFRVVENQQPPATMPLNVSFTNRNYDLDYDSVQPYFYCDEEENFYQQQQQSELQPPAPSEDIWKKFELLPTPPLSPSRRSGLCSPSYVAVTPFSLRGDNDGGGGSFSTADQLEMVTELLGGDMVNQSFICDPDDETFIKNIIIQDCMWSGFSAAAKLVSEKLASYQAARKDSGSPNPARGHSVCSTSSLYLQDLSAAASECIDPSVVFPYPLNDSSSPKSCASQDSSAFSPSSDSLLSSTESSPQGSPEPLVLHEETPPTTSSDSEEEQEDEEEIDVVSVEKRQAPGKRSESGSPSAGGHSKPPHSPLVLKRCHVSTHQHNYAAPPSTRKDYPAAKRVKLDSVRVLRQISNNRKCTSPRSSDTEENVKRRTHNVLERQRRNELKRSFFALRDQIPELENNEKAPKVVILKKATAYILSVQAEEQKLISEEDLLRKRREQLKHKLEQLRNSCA
UniProt Q969H0: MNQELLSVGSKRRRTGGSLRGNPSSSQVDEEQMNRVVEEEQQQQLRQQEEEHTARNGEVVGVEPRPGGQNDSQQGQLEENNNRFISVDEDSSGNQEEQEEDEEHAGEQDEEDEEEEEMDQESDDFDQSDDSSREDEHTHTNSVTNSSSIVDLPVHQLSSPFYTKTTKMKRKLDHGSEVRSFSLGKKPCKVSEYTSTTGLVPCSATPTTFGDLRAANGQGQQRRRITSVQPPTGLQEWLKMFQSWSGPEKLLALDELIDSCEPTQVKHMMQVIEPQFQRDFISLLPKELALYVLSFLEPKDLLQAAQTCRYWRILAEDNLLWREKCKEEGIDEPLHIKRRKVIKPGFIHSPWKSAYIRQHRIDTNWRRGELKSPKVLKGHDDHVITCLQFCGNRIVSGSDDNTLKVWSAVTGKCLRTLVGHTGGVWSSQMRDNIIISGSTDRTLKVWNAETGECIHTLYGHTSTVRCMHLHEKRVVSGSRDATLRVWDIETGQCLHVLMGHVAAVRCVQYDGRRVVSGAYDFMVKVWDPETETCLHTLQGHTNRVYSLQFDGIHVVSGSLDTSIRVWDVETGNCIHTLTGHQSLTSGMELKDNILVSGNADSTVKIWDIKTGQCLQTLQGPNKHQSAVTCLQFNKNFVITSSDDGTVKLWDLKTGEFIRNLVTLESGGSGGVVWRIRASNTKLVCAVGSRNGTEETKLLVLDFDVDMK

Key:
[1] = molecular target: MXD1 (human (endogenous in SCC25)) (UniProt Q05195); experiment: co-IP
[2] = molecular target: T1, vitamin D receptor (human (endogenous in SCC25)) (UniProt P11473); experiment: co-IP
T1 sequence: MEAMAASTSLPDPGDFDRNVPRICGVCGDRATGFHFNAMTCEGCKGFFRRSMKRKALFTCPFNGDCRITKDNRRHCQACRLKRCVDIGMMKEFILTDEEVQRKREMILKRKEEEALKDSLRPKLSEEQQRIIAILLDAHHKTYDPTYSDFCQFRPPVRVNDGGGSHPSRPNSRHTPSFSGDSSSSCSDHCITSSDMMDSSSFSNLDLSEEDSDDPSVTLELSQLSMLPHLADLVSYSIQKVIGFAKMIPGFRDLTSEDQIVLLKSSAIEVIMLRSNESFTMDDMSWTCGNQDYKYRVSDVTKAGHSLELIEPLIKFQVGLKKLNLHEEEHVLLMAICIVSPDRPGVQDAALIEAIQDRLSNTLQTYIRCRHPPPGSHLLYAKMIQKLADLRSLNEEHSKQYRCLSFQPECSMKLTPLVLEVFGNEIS

[3] = molecular target: c-MYC (human (endogenous in SCC25)) (UniProt P01106); experiment: co-IP
[4] = molecular target: T2, GST fused to the full-length VDR (UniProt P11473); experiment: pull-down
T2 sequence: T1 sequence

[5] = molecular target: MXD1 (human (endogenous in SCC25)) (UniProt Q05195); experiment: co-IP; remark: listed apart in the source
[6] = molecular target: c-MYC (human (endogenous in SCC25)) (UniProt P01106); experiment: co-IP; remark: listed apart in the source

Molecule: Flag-tagged FBW7 (from UniProt Q969H0 1-707)
- binding [1]: binds
- binding [2]: binds
- binding [3]: binds

Molecule: MXD1, in vitro translated (from UniProt Q05195 1-221)
- binding [4]: binds

Molecule: c-MYC, in vitro translated (from UniProt P01106 1-454)
- binding [4]: binds

B1: vitamin D receptor (receptor, UniProt P11473 1-427)
chain: T1 sequence
- binding [5]: binds
- binding [6]: binds
